Measurements from PubChem BioAssay AID1347426 (Functional Genomics Laboratory (NCATS/FGL), 2020).
The campaign covered roughly 31,000 sequences. About 1,400 (4.5%) were called active.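 The calls were made as follows: active = median seed-adjusted z-score above 1 or below -1; inactive = the rest.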 Some of the results follow.

Assay: Novel Modifiers of Survival Motor Neuron (SMN) Protein: Gene Identification via Genome-wide siRNA Screen;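 also: luminescence tracks full-length SMN protein made from the SMN2 reporter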
Settings: HEK293T SMN2-luciferase reporter, siRNA knockdown, 72 h; actives lie on both sides
Method in brief: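 Steps: spot 1 pmol siRNA, add Lipofectamine RNAiMax in serum-free DMEM, seed HEK293T SMN2–luciferase reporter cells; incubate 72 h at 37 °C; add ONE-Glo; normalize luminescence to control siRNA, log10, MAD. Candidates: |MAD| > 1.0.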

Which median seed-adjusted z-score does the source give for GCUCUUUGCAAUUCCUAUUTT against FMO3 here?
The median seed-adjusted z-score was inactive: -0.0769.

With GAAGGACAUUUAGGAGACATT against LPPR2 as the sequence, how does the median seed-adjusted z-score read?
The median seed-adjusted z-score was inactive: 0.255.

Which median seed-adjusted z-score does the source give for GGGACUUUUGCAAAGGAAATT against CLEC5A here?
The median seed-adjusted z-score was active: -1.07.

Which median seed-adjusted z-score does the source give for GAGAUACACUGCGAAAAGATT against STK3 here?
Its median seed-adjusted z-score is inactive: 0.108.

For CCUCAUUUGUCUACACCAUTT against RAD51L1, which median seed-adjusted z-score is on record?
The median seed-adjusted z-score was inactive: 0.

Which median seed-adjusted z-score does the source give for CCAACUGGUUUAUGAAGAATT against TAGLN here?
The median seed-adjusted z-score was inactive: 0.0485.

For GAAAUUUGCGCACCAUAUUTT against MGAT4C, which median seed-adjusted z-score is on record?
Its median seed-adjusted z-score is inactive: 0.187.

For CAUCGAAUCCUGCACGUGUTT against WNT1, which median seed-adjusted z-score is on record?
The median seed-adjusted z-score was inactive: 0.

With GUCCAUUAAUAAUAAAGCATT against PABPC3 as the sequence, how does the median seed-adjusted z-score read?
The median seed-adjusted z-score was inactive: -0.314.

With GACUCUGUAUUAUACAGCATT against WARS2 as the sequence, how does the median seed-adjusted z-score read?
Its median seed-adjusted z-score is inactive: 0.21.

Which median seed-adjusted z-score does the source give for AGACUUUAAUGGUAACCGUTT against FCN3 here?
Its median seed-adjusted z-score is inactive: -0.112.

With GAAGAUCAUUAGAUUUCUATT against SULT1B1 as the sequence, how does the median seed-adjusted z-score read?
The median seed-adjusted z-score was inactive: -0.115.

For GAACCAUGACGGUACCUUUTT against FLNC, which median seed-adjusted z-score is on record?
The median seed-adjusted z-score was inactive: 0.00217.

For GACCUAACCAGGUAGAUGATT against TEX14, which median seed-adjusted z-score is on record?
The median seed-adjusted z-score was inactive: -0.107.

Which median seed-adjusted z-score does the source give for GCAGUUCCUGAAUUAGCUATT against METTL3 here?
The median seed-adjusted z-score was inactive: 0.261.

With GGAUUACUCUGGUAUUGCUTT against ADIPOR2 as the sequence, how does the median seed-adjusted z-score read?
Its median seed-adjusted z-score is inactive: -0.614.

With CCCAGAAAAUUUCAUACUATT against TTC7B as the sequence, how does the median seed-adjusted z-score read?
The median seed-adjusted z-score was inactive: 0.0338.

With CAGUCCCUCAGAAACCUAATT against FCER1A as the sequence, how does the median seed-adjusted z-score read?
Its median seed-adjusted z-score is inactive: -0.0293.

Which median seed-adjusted z-score does the source give for GCACUUAACCAACUAUUCATT against TTLL11 here?
Its median seed-adjusted z-score is inactive: 0.00825.

With CCAACUUUGUUGGUUACUATT against STYK1 as the sequence, how does the median seed-adjusted z-score read?
Its median seed-adjusted z-score is inactive: 0.106.

For GAACGAGUCUUUGUAGUAATT against PRKD3, which median seed-adjusted z-score is on record?
The median seed-adjusted z-score was inactive: -0.906.

With GAACUAUCCGAGUGGAUCATT against RBMX2 as the sequence, how does the median seed-adjusted z-score read?
The median seed-adjusted z-score was inactive: -0.585.

For GCACUUAUAUGACAGCGAATT against SIM1, which median seed-adjusted z-score is on record?
The median seed-adjusted z-score was inactive: -0.0177.

For CCACGACUGUCACUAAGUUTT against GABRB1, which median seed-adjusted z-score is on record?
Its median seed-adjusted z-score is inactive: 0.238.

Which median seed-adjusted z-score does the source give for AGAAUAUAGCUGCUCAUGATT against PHF11 here?
Its median seed-adjusted z-score is inactive: 0.174.

For CCACAGAAGGUUAAGGUGATT against NOB1, which median seed-adjusted z-score is on record?
The median seed-adjusted z-score was inactive: -0.0844.

With GAAGUAUGAAGAAGAAGUATT against KRT83 as the sequence, how does the median seed-adjusted z-score read?
Its median seed-adjusted z-score is active: 1.15.

For GACUUAUCCAUUAAGAUCATT against PDK3, which median seed-adjusted z-score is on record?
The median seed-adjusted z-score was inactive: 0.232.

With CAUUCGUUCUCUCAAUAAATT against CYP3A7 as the sequence, how does the median seed-adjusted z-score read?
Its median seed-adjusted z-score is inactive: -0.107.

For GAAGACGAAUGUAAAGGUATT against SMC6, which median seed-adjusted z-score is on record?
Its median seed-adjusted z-score is inactive: 0.227.

With GGCAAGUUCUCCUUCGACATT against ALDH3B1 as the sequence, how does the median seed-adjusted z-score read?
Its median seed-adjusted z-score is inactive: 0.148.

With CUACGACGCGGAGAACAAATT against PRTN3 as the sequence, how does the median seed-adjusted z-score read?
The median seed-adjusted z-score was inactive: -0.49.

With CACUUGAUGCGUACAAAGATT against NPY1R as the sequence, how does the median seed-adjusted z-score read?
Its median seed-adjusted z-score is inactive: 0.76.

With GGUGGAUUACGAUCGAGCATT against PAK7 as the sequence, how does the median seed-adjusted z-score read?
The median seed-adjusted z-score was inactive: -0.202.

With GCACCAAAAUGCAAGAGAATT against NT5C1B as the sequence, how does the median seed-adjusted z-score read?
Its median seed-adjusted z-score is inactive: 0.0594.

For GGAUCAUCUGGAAUAGGAATT against CLPB, which median seed-adjusted z-score is on record?
The median seed-adjusted z-score was inactive: -0.985.

For GAAGGUUCAGUUUCGGAAATT against ELL, which median seed-adjusted z-score is on record?
Its median seed-adjusted z-score is inactive: -0.497.

Which median seed-adjusted z-score does the source give for CGAACAUUCUUAAAGAACUTT against AP3M2 here?
The median seed-adjusted z-score was inactive: 0.327.

For AGCCUAUUGUGGUCUAUGATT against ECE1, which median seed-adjusted z-score is on record?
The median seed-adjusted z-score was inactive: -0.344.

Which median seed-adjusted z-score does the source give for GAAUCUCGAUUUCAUUGAATT against SERPINB1 here?
Its median seed-adjusted z-score is inactive: 0.734.

With GCACUGAUGAGGUAGUAGATT against SENP3 as the sequence, how does the median seed-adjusted z-score read?
The median seed-adjusted z-score was inactive: 0.543.

For GUUGCAAUCAAGAAGCUAATT against MAPK8, which median seed-adjusted z-score is on record?
The median seed-adjusted z-score was inactive: 0.316.

Which median seed-adjusted z-score does the source give for CCUACUAUGAUGUUAGUAATT against SCGN here?
The median seed-adjusted z-score was inactive: -0.0164.

For CCAGCUAGAUUGGGAUGAATT against CLK4, which median seed-adjusted z-score is on record?
The median seed-adjusted z-score was inactive: -0.201.

Which median seed-adjusted z-score does the source give for CAUCCAUUUGUCUUGCAAATT against GTF2F2 here?
Its median seed-adjusted z-score is active: -1.14.

Which median seed-adjusted z-score does the source give for GGACUACCAUGUAUCCCUATT against SOS2 here?
Its median seed-adjusted z-score is inactive: 0.3.

For GGAUGAGAGUUCAAGACGATT against INPP4A, which median seed-adjusted z-score is on record?
Its median seed-adjusted z-score is inactive: 0.379.

Which median seed-adjusted z-score does the source give for GGAUUUCGUUAAAACACGATT against PARD3 here?
Its median seed-adjusted z-score is inactive: -0.116.

Which median seed-adjusted z-score does the source give for GCUUCACCCUGGCUAGAAATT against ECHDC2 here?
Its median seed-adjusted z-score is inactive: -0.0827.

With GUUGAGGUCUGGUAACAGATT against TMED1 as the sequence, how does the median seed-adjusted z-score read?
The median seed-adjusted z-score was inactive: 0.

Which median seed-adjusted z-score does the source give for GCCGCUUCUUCAAUGCCUUTT against AGRP here?
Its median seed-adjusted z-score is inactive: 0.206.

With CCUGCGUCAUCGUUUGCUATT against FZD9 as the sequence, how does the median seed-adjusted z-score read?
The median seed-adjusted z-score was inactive: -0.0532.

For GUAUCAGCAUUGAUAGAUATT against GPR21, which median seed-adjusted z-score is on record?
Its median seed-adjusted z-score is inactive: 0.246.

Which median seed-adjusted z-score does the source give for GGCUUUCUUUGGGAGCAGUTT against GCS1 here?
Its median seed-adjusted z-score is inactive: 0.819.

For GCGAUUUUCUUACAGUCGATT against USP15, which median seed-adjusted z-score is on record?
Its median seed-adjusted z-score is inactive: -0.405.

With GGAUUGGUCUGAGGAACAATT against KLRG1 as the sequence, how does the median seed-adjusted z-score read?
Its median seed-adjusted z-score is inactive: -0.0324.

With GGGUGGAUCAUGUUAUGGATT against NEIL3 as the sequence, how does the median seed-adjusted z-score read?
Its median seed-adjusted z-score is inactive: 0.0736.

For GCACUAUCCUCUUAGAGAATT against SFRS2, which median seed-adjusted z-score is on record?
The median seed-adjusted z-score was inactive: 0.263.

Which median seed-adjusted z-score does the source give for GGAAUUAAGCCUUCCCAGATT against ZNF81 here?
Its median seed-adjusted z-score is inactive: 0.178.

With GCUACAGGCUUUCUACUUATT against UBE2G1 as the sequence, how does the median seed-adjusted z-score read?
The median seed-adjusted z-score was inactive: 0.174.

Which median seed-adjusted z-score does the source give for CAAGGAUCAGUUACGGAAATT against APP here?
Its median seed-adjusted z-score is inactive: 0.0204.

For GUUCUGUAAUCGAAGACAATT against POU3F4, which median seed-adjusted z-score is on record?
The median seed-adjusted z-score was inactive: -0.314.

For CCAUGUCCAGUGUCACGAATT against GALNTL5, which median seed-adjusted z-score is on record?
Its median seed-adjusted z-score is inactive: -0.363.

With GGCUAUAGGGUGUAUAUUUTT against CDK8 as the sequence, how does the median seed-adjusted z-score read?
The median seed-adjusted z-score was active: -1.47.

For GCACAGUUAUAGUGAUCAATT against EMR1, which median seed-adjusted z-score is on record?
The median seed-adjusted z-score was inactive: 0.255.

Which median seed-adjusted z-score does the source give for GCAGCUCUCCUAUUAGUAATT against DMRT1 here?
The median seed-adjusted z-score was inactive: 0.

With GGAGAGAGCAGUUUCAACATT against HSPB8 as the sequence, how does the median seed-adjusted z-score read?
The median seed-adjusted z-score was inactive: 0.207.

With CGAGUAGAUUAUAAGUGUATT against CD46 as the sequence, how does the median seed-adjusted z-score read?
Its median seed-adjusted z-score is inactive: -0.0278.

For GUUCCAAACCUGUUCAUUUTT against GRPR, which median seed-adjusted z-score is on record?
The median seed-adjusted z-score was inactive: 0.121.
